Laboratory results taken from the supplement of paper PMC5393889.
The list shows a part of the results.

system: Caenorhabditis elegans N2; experiment: aldicarb interaction hit call (worm growth perturbed in combination with 10 uM aldicarb in both replicates, no effect as single agent) (binary (1 = interacts)); higher = interacts with aldicarb (growth perturbed); conditions: first compound 1.5 µM; aldicarb concentration 10 µM; 6 days; 20 °C

| Compound | aldicarb interaction hit call |
| --- | --- |
| CCOc1ccc(-c2cnc3ccccc3n2)cc1 [wact-24] + CNC(=O)O/N=C/C(C)(C)SC [aldicarb] | inactive: 0 |
| O=C(NC(=S)Nc1ccc(F)cc1)C1CC1 [wact-524] + CNC(=O)O/N=C/C(C)(C)SC [aldicarb] | inactive: 0 |
| O=[N+]([O-])c1ccc(N2CCN(C(=S)NCc3ccc(Cl)cc3)CC2)cc1 [wact-115] + CNC(=O)O/N=C/C(C)(C)SC [aldicarb] | inactive: 0 |
| O=C(NCCNc1ccc([N+](=O)[O-])cc1Cl)c1ccc(F)cc1 + CNC(=O)O/N=C/C(C)(C)SC [aldicarb] | inactive: 0 |
| CCOc1ccc(S(=O)(=O)N2CCCCCC2)cc1C [wact-555] + CNC(=O)O/N=C/C(C)(C)SC [aldicarb] | inactive: 0 |
| COc1cccc(-c2noc(-c3ccccc3)n2)c1 [wact-135] + CNC(=O)O/N=C/C(C)(C)SC [aldicarb] | inactive: 0 |
| C#CCNC(=O)CSc1nnc(-c2cc3c(s2)CCC(C)C3)o1 (stereo unspecified) [clearyn] + CNC(=O)O/N=C/C(C)(C)SC [aldicarb] | inactive: 0 |
| Clc1ccc(N2CCN(N=Cc3cccnc3)CC2)cc1 [wact-598] + CNC(=O)O/N=C/C(C)(C)SC [aldicarb] | inactive: 0 |
| Cc1ccc(-c2cc(-c3ccccc3Cl)[nH]n2)c(O)c1 [wact-623] + CNC(=O)O/N=C/C(C)(C)SC [aldicarb] | inactive: 0 |
| Cl.NCc1cc(Cl)c(OCc2ccccc2)c(Cl)c1 [wact-129] + CNC(=O)O/N=C/C(C)(C)SC [aldicarb] | inactive: 0 |
| N/C(=N\OC(=O)Cc1cccs1)c1ccccc1 [wact-493] + CNC(=O)O/N=C/C(C)(C)SC [aldicarb] | inactive: 0 |
| C#CCNS(=O)(=O)c1cccc(C(=O)OCc2cc(-c3ccc(Cl)cc3)no2)c1 [wact-349] + CNC(=O)O/N=C/C(C)(C)SC [aldicarb] | inactive: 0 |
| Clc1ccc(N2CCN(Cc3cccc(Br)c3)CC2)cc1 [wact-215] + CNC(=O)O/N=C/C(C)(C)SC [aldicarb] | inactive: 0 |
| Clc1ccc(Br)cc1-c1nc(-c2ccncc2)no1 [wact-106] + CNC(=O)O/N=C/C(C)(C)SC [aldicarb] | active: 1 |
| Cl.OCCNCc1ccc(OCc2ccc(Cl)cc2Cl)cc1 [wact-97] + CNC(=O)O/N=C/C(C)(C)SC [aldicarb] | inactive: 0 |
| Oc1ccccc1-c1nc(/C=C/c2ccc(F)cc2)n[nH]1 [wact-536] + CNC(=O)O/N=C/C(C)(C)SC [aldicarb] | inactive: 0 |
| COc1ccc(/C=C/c2ccccn2)cc1 [wact-622] + CNC(=O)O/N=C/C(C)(C)SC [aldicarb] | inactive: 0 |
| CCc1ccc2oc(-c3ccc(C)c(N)c3)nc2c1 [wact-57] + CNC(=O)O/N=C/C(C)(C)SC [aldicarb] | inactive: 0 |
| CN(Cc1ccc2cc(F)ccc2n1)CC1CCN(CCc2cccc(F)c2)CC1 [wact-287] + CNC(=O)O/N=C/C(C)(C)SC [aldicarb] | inactive: 0 |
| Cc1ccccc1SCCNC(=O)c1ccccc1Br [wact-508] + CNC(=O)O/N=C/C(C)(C)SC [aldicarb] | inactive: 0 |
| O=C(c1cc2ccccc2o1)c1ccc(Br)s1 [wact-490] + CNC(=O)O/N=C/C(C)(C)SC [aldicarb] | inactive: 0 |
| CCC(NCc1c[nH]nc1-c1ccc(C)c(C)c1)c1ccc(F)cc1 (stereo unspecified) [wact-297] + CNC(=O)O/N=C/C(C)(C)SC [aldicarb] | inactive: 0 |
| Clc1ccc(-c2nc(-c3cccs3)no2)c(Cl)c1 [wact-169] + CNC(=O)O/N=C/C(C)(C)SC [aldicarb] | inactive: 0 |
| CCCCCc1ccc(-c2ccc(OC)cc2)nc1 [wact-55] + CNC(=O)O/N=C/C(C)(C)SC [aldicarb] | inactive: 0 |
| CCN1CCN(c2ccc(NC(=O)c3cc4ccccc4cc3OC)cc2Cl)CC1 [wact-535] + CNC(=O)O/N=C/C(C)(C)SC [aldicarb] | inactive: 0 |
| Fc1ccccc1Nc1nc(-c2ccccc2)cs1 [wact-596] + CNC(=O)O/N=C/C(C)(C)SC [aldicarb] | inactive: 0 |

2 entries from above, set out differently.
Compound,aldicarb interaction hit call
Clc1ccc(N2CCN(N=Cc3cccnc3)CC2)cc1 [wact-598] + CNC(=O)O/N=C/C(C)(C)SC [aldicarb],inactive: 0
Cc1ccc(-c2cc(-c3ccccc3Cl)[nH]n2)c(O)c1 [wact-623] + CNC(=O)O/N=C/C(C)(C)SC [aldicarb],inactive: 0
